In publication PMC10547647:
These are yes or no findings as the source states them, for the method shown. In cells and extracts the contact can be indirect. Some results given as binding are weak or reduced against the parent protein; the word gives no strength.

Target: T1, Cycle checkpoint kinase 1 (CHK1), endogenous (human (endogenous in BxPC-3)) (UniProt O14757)
T1 sequence: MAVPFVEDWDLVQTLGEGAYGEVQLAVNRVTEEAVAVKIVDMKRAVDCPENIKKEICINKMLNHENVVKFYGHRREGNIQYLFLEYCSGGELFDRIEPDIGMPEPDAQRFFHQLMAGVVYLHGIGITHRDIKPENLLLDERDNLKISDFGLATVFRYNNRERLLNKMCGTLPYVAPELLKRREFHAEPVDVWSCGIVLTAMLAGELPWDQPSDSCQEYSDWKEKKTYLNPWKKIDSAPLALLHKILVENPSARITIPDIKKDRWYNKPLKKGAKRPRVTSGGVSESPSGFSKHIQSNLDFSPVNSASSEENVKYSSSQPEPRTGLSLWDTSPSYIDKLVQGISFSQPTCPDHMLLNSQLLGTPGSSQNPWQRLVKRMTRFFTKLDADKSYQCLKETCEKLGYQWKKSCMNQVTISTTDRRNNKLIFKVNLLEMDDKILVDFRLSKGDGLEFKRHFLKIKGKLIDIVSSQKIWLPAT
Experiment: co-IP; BxPC-3 cells treated with control vectors or Flag-FHL1 vectors; IP by anti-CHK1 or IgG, Western blot

binding: binds
B1: Cell division cycle 25A (CDC25A), endogenous (protein, UniProt P30304 1-524)
chain: MELGPEPPHRRRLLFACSPPPASQPVVKALFGASAAGGLSPVTNLTVTMDQLQGLGSDYEQPLEVKNNSNLQRMGSSESTDSGFCLDSPGPLDSKENLENPMRRIHSLPQKLLGCSPALKRSHSDSLDHDIFQLIDPDENKENEAFEFKKPVRPVSRGCLHSHGLQEGKDLFTQRQNSAPARMLSSNERDSSEPGNFIPLFTPQSPVTATLSDEDDGFVDLLDGENLKNEEETPSCMASLWTAPLVMRTTNLDNRCKLFDSPSLCSSSTRSVLKRPERSQEESPPGSTKRRKSMSGASPKESTNPEKAHETLHQSLSLASSPKGTIENILDNDPRDLIGDFSKGYLFHTVAGKHQDLKYISPEIMASVLNGKFANLIKEFVIIDCRYPYEYEGGHIKGAVNLHMEEEVEDFLLKKPIVPTDGKRVIVVFHCEFSSERGPRMCRYVRERDRLGNEYPKLHYPELYVLKGGYKEFFMKCQSYCEPPSYRPMHHEDFKEDLKKFRTKSRTWAGEKSKREMYSRLKKL
